These are yes or no findings as the source states them, for the method shown. In cells and extracts the contact can be indirect. Binding can be weak; no strength is given. For some assays here: Sequences can lack the tags named with a protein.

Holding throughout (assay): co-IP; HEK-293T co-transfected for 24-48 h; lysates in NETN buffer (20 mM Tris-Cl pH 8.0, 100 mM NaCl, 0.5 mM EDTA, 0.5% NP-40); anti-FLAG, anti-HA or anti-Myc beads 1 h to 1 h 30 at 4 °C; four washes; western blot
Assay [1] deals with T1, USP18 CD (USP catalytic domain only) (human) (UniProt Q9UMW8).
T1 sequence: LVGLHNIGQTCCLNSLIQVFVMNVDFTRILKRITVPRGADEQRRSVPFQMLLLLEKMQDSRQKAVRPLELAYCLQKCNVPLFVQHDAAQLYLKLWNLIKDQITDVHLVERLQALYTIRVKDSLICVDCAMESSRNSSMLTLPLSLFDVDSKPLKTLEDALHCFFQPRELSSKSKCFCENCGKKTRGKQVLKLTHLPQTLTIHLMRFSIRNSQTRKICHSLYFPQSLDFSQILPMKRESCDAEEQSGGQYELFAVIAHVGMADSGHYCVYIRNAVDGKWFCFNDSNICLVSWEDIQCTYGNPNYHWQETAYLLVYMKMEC

The target of a further assay is T2, HA-USP18B (human) (UniProt Q9UMW8).
T2 sequence: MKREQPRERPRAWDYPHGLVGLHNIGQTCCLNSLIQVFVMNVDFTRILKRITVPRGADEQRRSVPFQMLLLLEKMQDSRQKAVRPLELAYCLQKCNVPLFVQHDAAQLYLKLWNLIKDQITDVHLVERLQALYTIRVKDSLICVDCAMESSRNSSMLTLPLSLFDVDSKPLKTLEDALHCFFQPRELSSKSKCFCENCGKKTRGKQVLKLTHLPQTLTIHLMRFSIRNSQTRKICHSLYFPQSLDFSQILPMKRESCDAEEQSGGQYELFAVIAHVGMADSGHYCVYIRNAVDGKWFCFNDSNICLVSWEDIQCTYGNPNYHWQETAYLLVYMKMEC

The target in a further assay is T3, HA-USP18A (human) (UniProt Q9UMW8).
T3 sequence: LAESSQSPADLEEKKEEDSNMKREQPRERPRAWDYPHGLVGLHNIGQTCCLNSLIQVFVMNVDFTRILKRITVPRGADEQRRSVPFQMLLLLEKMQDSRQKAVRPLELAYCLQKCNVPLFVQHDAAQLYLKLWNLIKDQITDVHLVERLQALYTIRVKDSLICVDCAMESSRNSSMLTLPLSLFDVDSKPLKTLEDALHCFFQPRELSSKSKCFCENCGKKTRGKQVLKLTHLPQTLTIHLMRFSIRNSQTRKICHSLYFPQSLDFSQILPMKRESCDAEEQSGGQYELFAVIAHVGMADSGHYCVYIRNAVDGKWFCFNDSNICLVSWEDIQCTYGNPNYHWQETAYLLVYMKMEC

The target of a further assay is Myc-USP41 (human).

For the molecule “USP41 CD (USP catalytic domain only) (human) (domain or fragment)”, the binding entry in assay [1] is “binds”.

Turning to Myc-USP41 (human), the binding entry with HA-USP18B (human) and in the assay with HA-USP18A (human) was “binds” each time.

B1: HA-USP18A (enzyme, UniProt Q9UMW8 16-372)
chain: T3 sequence
Regarding B1, in the assay with Myc-USP41 (human), the binding entry is on record as “binds”.

B2: HA-USP18B (enzyme, UniProt Q9UMW8 36-372)
chain: T2 sequence
For B2, in the assay with Myc-USP41 (human), the binding entry is given as “binds”.

For the origin of these results see paper PMC12221285.
